# Measurements from PubChem BioAssay AID504444 (National Center for Advancing Translational Sciences (NCATS), 2011).
# The whole screen tested about 360,000 compounds, of which about 7,500 (2.1%) were called active. Inconclusive results, whose numbers are uncertain, are shown with a selection of clear calls. Calls follow the shape of the dose curve; as a rule, active = well fitted inhibition curve with a large enough effect; inconclusive = small, poorly fitted or top-dose-only effect, or effect the other way; inactive = flat fitted curve, though single readings scatter. Potencies beside an inconclusive call are fits to weak or partial responses and may not hold up.
# Test: Nrf2 qHTS screen for inhibitors; also: nearly all actives have a fitted effect of over 60% in size
# Details: A549 ARE-Fluc reporter, luciferase luminescence, 18-24 h; activity change, negative = inhibition: at 46 µM (top of the series)
# Outline: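 Quantitative HTS in A549 cells stably bearing an antioxidant response element-firefly luciferase construct. Inhibition of Nrf2-driven transcription was scored by luminescence after 18-24 h of compound exposure at 37 °C.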
# % is scaled to controls: 0 for no effect and ±100 for the full control effect; potency is read from the fitted curve at half-maximal effect.
Structure (SMILES),"activity change, negative = inhibition",Potency
NS(=O)(=O)c1ccc(N=C2C(=O)Nc3ccccc32)cc1,inactive: 5.43%,–
CCOC(=O)C1CCN(CC(=O)Nc2cc(S(=O)(=O)N3CCCCC3)ccc2Cl)CC1,–,"inconclusive: 32.6 µM [falling, single point]"
Cc1oc2ccc(O)c(CN3CCOCC3)c2c1C(=O)Nc1ccccc1,inactive: 4.67%,–
O=C(O)CCC(=O)Nc1ccc(-c2csc(Nc3cccc4ccccc34)n2)cc1,–,"inconclusive: 8.2 µM [activator, partial curve]"
COc1cc(NC(=O)CN2C(=O)C(c3ccc(C)cc3)=NC23CCCCC3)cc(OC)c1,–,"inconclusive: 29.1 µM [falling, single point]"
CN(C)CCNC(=S)Nc1ccc(Cl)cc1Cl,–,"inconclusive: 4.61 µM [activator, full curve]"
N#Cc1ccc(S(=O)(=O)N2CCc3[nH]c4ccc(F)cc4c3C2)cc1,–,"inconclusive: 20.6 µM [falling, single point]"
COc1ccc(S(=O)(=O)N2CCCCCC2)cc1NC(=O)CN(C)Cc1ccc2c(c1)OCO2,–,"inconclusive: 20.6 µM [falling, single point]"
COCCOC(=O)/C(=C/c1ccc(OC(=O)c2ccccc2)cc1)C(C)=O,inactive: -7.33%,–
O=c1cc(CSc2ccc(Cl)cc2)nc(N2CCOCC2)[nH]1,–,"inconclusive: 16.4 µM [activator, single point]"
COc1ccc(-n2nc([N+](=O)[O-])c(=NCc3ccc4c(c3)OCO4)n2O)cc1,–,"inconclusive: 7.31 µM [activator, partial curve]"
OC(CNCC(c1ccco1)N1CCCCC1)c1ccccc1 (centres undefined),inactive: -17.5%,–
COc1cccc(N2CC(C(=O)Nc3nnc(SCc4ccccn4)s3)CC2=O)c1 (centres undefined),–,"inconclusive: 6.51 µM [falling, single point]"
NC(=O)c1oc2ccccc2c1NC(=O)c1ccc([N+](=O)[O-])o1,–,"inconclusive: 29.1 µM [falling, single point]"
O=C(c1cccs1)c1no[n+]([O-])c1C(=O)c1cccs1,–,"inconclusive: 29.1 µM [activator, single point]"
CCC(C)Sc1ccc([C@@H]2[C@@H]3C(=O)N(C)C(=O)[C@@H]3[C@]3(C(=O)OC)CCCCN23)cc1 (some centres undefined),–,"inconclusive: 25.9 µM [falling, single point]"
COc1cc(NCCCCCCCN)c2ncccc2c1,inactive: -18.5%,–
O=C(CSc1ccccc1)N1CCCC(N2CCN(c3ccc(F)cc3)CC2)C1 (centres undefined),–,"inconclusive: 16.4 µM [falling, partial curve, poor fit]"
Cc1ccc(O)c(N=NC2=C(O)CC(C)(C)CC2=O)c1,–,"inconclusive: 16.4 µM [falling, single point]"
COc1ccc(N(CC(O)Cn2nnc3ccccc32)S(=O)(=O)c2ccc(C)cc2)cc1 (centres undefined),–,"inconclusive: 2.59 µM [falling, partial curve, poor fit]"
CCCCN(C)CCNC(=O)c1c(C)oc2ncnc(N3CCOCC3)c12,–,"inconclusive: 29.1 µM [activator, single point]"
CC(=O)OCC(=O)C1(O)CCC2C3CCC4=CC(=O)CCC4(C)C3C(O)CC21C (centres undefined),–,active: 0.146 µM

Structure (SMILES),"activity change, negative = inhibition",Potency
N#CCc1c[nH]c2ccc([N+](=O)[O-])cc12,inactive: -9.51%,–
O=C(Cn1cnc2c(nnn2Cc2ccc(Cl)cc2)c1=O)N1CCN(c2ccccc2)CC1,–,"inconclusive: 29.1 µM [falling, single point]"
Cc1ccc(NC(=O)c2cnn(-c3ccc(C)c(C)c3)c2C2CCN(C(=O)OC(C)(C)C)CC2)c(C)c1,–,"inconclusive: 16.4 µM [falling, single point]"
CCCCc1ccc(NC(=O)CSc2nc(=O)n3cc(C)ccc3n2)cc1,–,"inconclusive: 20.6 µM [falling, single point]"
Cc1ccc(-n2c(C)cc(C(=O)CN3CCCCC3)c2C)cc1,–,"inconclusive: 9.2 µM [activator, partial curve, poor fit]"
CCCCC(=O)Nc1cc(C)c(O)c(-c2nc3ncccc3o2)c1,–,"inconclusive: 5.8 µM [activator, partial curve]"
Cc1c(NC(=O)Nc2ccc(Cl)c(Cl)c2)sc(=S)n1C,–,"inconclusive: 29.1 µM [falling, single point]"
CCn1c2ccccc2c2cc(NS(=O)(=O)c3ccc(C)cc3)ccc21,–,"inconclusive: 20.6 µM [falling, single point]"
COc1ccc(-c2csc3nc(C)nc(N4CCCCC4)c23)cc1OC,inactive: -20%,–
N#Cc1c(C(F)(F)F)cc(-c2ccc(F)cc2)[nH]c1=O,–,"inconclusive: 18.4 µM [falling, partial curve, poor fit]"
Cc1cc(N(C)C)nc(Nc2ccccc2)n1,–,"inconclusive: 11.6 µM [falling, partial curve, poor fit]"
COc1cc(NC(=O)C2CCCN2C(=O)C2CCC(C)CC2)cc(OC)c1OC (centres undefined),–,"inconclusive: 0.731 µM [falling, full curve]"
CCc1ccc(NC(=O)C2C3/C=C\CCCCC32)cc1 (centres undefined),–,"inconclusive: 6.51 µM [activator, single point]"
COc1cccc2cc(C(=O)NCc3ccc(C)cc3)c(=O)oc12,inactive: -9.33%,–
COc1ccccc1N1CCN(C(=O)C2CCCN(c3ncnc4c3nc3n4CCCCC3)C2)CC1 (centres undefined),–,"inconclusive: 18.4 µM [falling, single point]"
CC(C)Cn1c(SCC(=O)Nc2cccnc2Cl)nnc1-c1ccco1,inactive: -21.1%,–
CC(C)CC(NC(=O)OC(C)(C)C)c1cn([C@@H](Cc2cc3ccccc3[nH]2)C(=O)N2CCN(C(=O)OC(C)(C)C)CC2)nn1 (some centres undefined),–,"inconclusive: 29.1 µM [falling, single point]"
CCOC(=O)c1c(C(F)(F)C(F)(F)C(F)(F)C(F)(F)F)n[nH]c1C,inactive: -29.5%,–
COc1ccc(Cl)cc1NC(=O)c1cc(C)nc2c1c(C)nn2-c1ccccc1,inactive: 22.4%,–
Nc1nonc1N/N=C\c1ccccc1,inactive: -1.48%,–
Cc1cc(NCc2ccccn2)n2nc(C)c(-c3ccc(Cl)cc3)c2n1,–,active: 16.4 µM
O=C(C1CC(c2ccccc2O)=NO1)N1CCCCC1 (centres undefined),–,"inconclusive: 1.64 µM [activator, full curve, poor fit]"

# Gathered by group, the entries above containing a CF3 group
Structure (SMILES),"activity change, negative = inhibition",Potency
N#Cc1c(C(F)(F)F)cc(-c2ccc(F)cc2)[nH]c1=O,–,"inconclusive: 18.4 µM [falling, partial curve, poor fit]"
CCOC(=O)c1c(C(F)(F)C(F)(F)C(F)(F)C(F)(F)F)n[nH]c1C,inactive: -29.5%,–
